PubChem BioAssay AID1159584, Peter MacCallum Cancer Centre, 2016
The whole screen tested about 18,000 reagents; this is a part drawn at random. Further read-outs or replicates are left out here. Not stated in the record: the amount of reagent, the time to read-out.

Screen: 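Genes that CDH1-null MCF10A cells selectively depend on to survive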 (primary screen)
System: human MCF10A breast epithelial cells, parental and CDH1-null
Knock-down reagent: siRNA against human genes
Read-out: 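ATP luminescence (CellTiter-Glo) viability per line relative to mean mock wells over all plates, and the ratio of CDH1-null to parental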
Direction: CDH1-null / parental viability ratio: higher = CDH1-null cells survive relatively better than parental; CDH1-null viability vs mock: higher = more viable CDH1-null cells

gene | CDH1-null / parental viability ratio | CDH1-null viability vs mock (fraction of mock)
PDE7B | 1.08 | 1.18
SLC8A3 | 1.13 | 1.31
DPY19L4 | 0.94 | 0.9
DCUN1D2 | 0.78 | 0.72
THOC6 | 0.94 | 0.91
CERS4 | 0.94 | 0.75
KLK1 | 1.08 | 0.8
JPT2 | 1.02 | 0.66
TRIT1 | 1.05 | 0.91
CLUH | 1.08 | 0.99
AIFM3 | 1 | 0.82
CENPI | 0.89 | 0.82
METTL3 | 1.07 | 0.62
SOX5 | 1.75 | 0.7
SLC45A4 | 1.03 | 0.64
CHST12 | 0.87 | 0.65
FGG | 0.9 | 0.82
SP100 | 1.05 | 0.8

Records above whose target name starts with T or t (2):
gene | CDH1-null / parental viability ratio | CDH1-null viability vs mock (fraction of mock)
THOC6 | 0.94 | 0.91
TRIT1 | 1.05 | 0.91

Additional entries:
gene | CDH1-null / parental viability ratio | CDH1-null viability vs mock (fraction of mock)
OBI1 | 0.93 | 0.56
PUM1 | 1.23 | 0.96
GPR37 | 1.26 | 0.92
NUP153 | 0.94 | 0.62
INSM2 | 1.04 | 0.82
H2AC1 | 1.01 | 0.96
CHCHD3 | 1.21 | 1.44
SPCS2 | 1.01 | 0.75
EIF5 | 1.07 | 0.86
ATP13A4 | 0.87 | 0.26
NOMO3 | 1.35 | 1.35
PLA2G4F | 1.26 | 0.88
C1QTNF4 | 1.43 | 0.8
MARS2 | 1.24 | 1.09
GAGE2C | 0.65 | 0.57
RMDN3 | 0.86 | 0.54
DLGAP1 | 0.96 | 0.67
SOCS5 | 0.84 | 0.62
OR2Z1 | 1.31 | 0.55
OFD1 | 1.02 | 1.1
MED25 | 0.94 | 0.68
PCDHGB6 | 1.15 | 0.99
DAO | 1.11 | 0.71
TRPC6 | 1.31 | 1.31
TERF2IP | 1.07 | 0.45
CDH4 | 1.2 | 1.08
ROR2 | 1 | 0.86
ECSIT | 1.05 | 0.92
